Data on one substance can be found in paper PMC8908937.

Amino acid sequences for entries named in this document (tags omitted).
UniProt P14618: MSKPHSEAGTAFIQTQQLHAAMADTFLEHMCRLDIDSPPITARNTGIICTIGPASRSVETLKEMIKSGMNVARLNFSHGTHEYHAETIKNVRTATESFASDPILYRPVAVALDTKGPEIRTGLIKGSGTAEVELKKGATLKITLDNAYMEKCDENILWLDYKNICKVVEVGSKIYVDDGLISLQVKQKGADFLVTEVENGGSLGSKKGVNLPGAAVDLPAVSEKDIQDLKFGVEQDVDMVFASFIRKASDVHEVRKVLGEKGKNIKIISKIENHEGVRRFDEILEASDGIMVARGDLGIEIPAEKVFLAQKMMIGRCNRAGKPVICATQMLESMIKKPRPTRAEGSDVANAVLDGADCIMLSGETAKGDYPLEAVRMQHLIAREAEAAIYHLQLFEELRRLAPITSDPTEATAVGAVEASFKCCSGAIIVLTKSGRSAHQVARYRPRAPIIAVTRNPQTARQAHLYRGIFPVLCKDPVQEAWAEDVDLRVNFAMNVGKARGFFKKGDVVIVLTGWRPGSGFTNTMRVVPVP

These are yes or no findings as the source states them, for the method shown. Binding seen in cells or lysates may run through a third protein. Some entries that bind do so weakly or less than the wild type.

This experiment deals with T1, MKRN2 (human) (UniProt Q9H000).
T1 sequence: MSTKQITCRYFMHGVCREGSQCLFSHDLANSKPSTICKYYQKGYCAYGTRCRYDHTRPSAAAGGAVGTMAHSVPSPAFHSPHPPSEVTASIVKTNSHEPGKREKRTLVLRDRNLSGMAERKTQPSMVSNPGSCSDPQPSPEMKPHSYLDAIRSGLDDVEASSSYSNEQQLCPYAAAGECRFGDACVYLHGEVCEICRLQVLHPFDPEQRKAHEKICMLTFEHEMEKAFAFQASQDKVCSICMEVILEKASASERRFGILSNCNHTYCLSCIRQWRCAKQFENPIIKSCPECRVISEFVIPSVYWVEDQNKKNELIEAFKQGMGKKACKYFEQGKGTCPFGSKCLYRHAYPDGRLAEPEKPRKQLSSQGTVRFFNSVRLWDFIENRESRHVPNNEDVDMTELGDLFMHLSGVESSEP
The experiment can be described thus: co-IP; gastric cells resuspended in 1 ml lysis buffer; MKRN2 and PKM2 immunoprecipitated with 1 ug of the respective antibody, IgG (1 ug) as control; western blot with anti-MKRN2 and anti-PKM2. In general terms: A western blot detects proteins with antibodies after separation by electrophoresis.

Take “Pyruvate kinase muscle isoform 2 (PKM2) (from UniProt P14618 1-531)”: the binding entry was “binds”.
